# Measured values published in paper PMC10069869.
# Protein sequences, listed by entry. Tags and fused reporters are not part of them. Residues count along the entry.
# UniProt P70208, residues 20-1872: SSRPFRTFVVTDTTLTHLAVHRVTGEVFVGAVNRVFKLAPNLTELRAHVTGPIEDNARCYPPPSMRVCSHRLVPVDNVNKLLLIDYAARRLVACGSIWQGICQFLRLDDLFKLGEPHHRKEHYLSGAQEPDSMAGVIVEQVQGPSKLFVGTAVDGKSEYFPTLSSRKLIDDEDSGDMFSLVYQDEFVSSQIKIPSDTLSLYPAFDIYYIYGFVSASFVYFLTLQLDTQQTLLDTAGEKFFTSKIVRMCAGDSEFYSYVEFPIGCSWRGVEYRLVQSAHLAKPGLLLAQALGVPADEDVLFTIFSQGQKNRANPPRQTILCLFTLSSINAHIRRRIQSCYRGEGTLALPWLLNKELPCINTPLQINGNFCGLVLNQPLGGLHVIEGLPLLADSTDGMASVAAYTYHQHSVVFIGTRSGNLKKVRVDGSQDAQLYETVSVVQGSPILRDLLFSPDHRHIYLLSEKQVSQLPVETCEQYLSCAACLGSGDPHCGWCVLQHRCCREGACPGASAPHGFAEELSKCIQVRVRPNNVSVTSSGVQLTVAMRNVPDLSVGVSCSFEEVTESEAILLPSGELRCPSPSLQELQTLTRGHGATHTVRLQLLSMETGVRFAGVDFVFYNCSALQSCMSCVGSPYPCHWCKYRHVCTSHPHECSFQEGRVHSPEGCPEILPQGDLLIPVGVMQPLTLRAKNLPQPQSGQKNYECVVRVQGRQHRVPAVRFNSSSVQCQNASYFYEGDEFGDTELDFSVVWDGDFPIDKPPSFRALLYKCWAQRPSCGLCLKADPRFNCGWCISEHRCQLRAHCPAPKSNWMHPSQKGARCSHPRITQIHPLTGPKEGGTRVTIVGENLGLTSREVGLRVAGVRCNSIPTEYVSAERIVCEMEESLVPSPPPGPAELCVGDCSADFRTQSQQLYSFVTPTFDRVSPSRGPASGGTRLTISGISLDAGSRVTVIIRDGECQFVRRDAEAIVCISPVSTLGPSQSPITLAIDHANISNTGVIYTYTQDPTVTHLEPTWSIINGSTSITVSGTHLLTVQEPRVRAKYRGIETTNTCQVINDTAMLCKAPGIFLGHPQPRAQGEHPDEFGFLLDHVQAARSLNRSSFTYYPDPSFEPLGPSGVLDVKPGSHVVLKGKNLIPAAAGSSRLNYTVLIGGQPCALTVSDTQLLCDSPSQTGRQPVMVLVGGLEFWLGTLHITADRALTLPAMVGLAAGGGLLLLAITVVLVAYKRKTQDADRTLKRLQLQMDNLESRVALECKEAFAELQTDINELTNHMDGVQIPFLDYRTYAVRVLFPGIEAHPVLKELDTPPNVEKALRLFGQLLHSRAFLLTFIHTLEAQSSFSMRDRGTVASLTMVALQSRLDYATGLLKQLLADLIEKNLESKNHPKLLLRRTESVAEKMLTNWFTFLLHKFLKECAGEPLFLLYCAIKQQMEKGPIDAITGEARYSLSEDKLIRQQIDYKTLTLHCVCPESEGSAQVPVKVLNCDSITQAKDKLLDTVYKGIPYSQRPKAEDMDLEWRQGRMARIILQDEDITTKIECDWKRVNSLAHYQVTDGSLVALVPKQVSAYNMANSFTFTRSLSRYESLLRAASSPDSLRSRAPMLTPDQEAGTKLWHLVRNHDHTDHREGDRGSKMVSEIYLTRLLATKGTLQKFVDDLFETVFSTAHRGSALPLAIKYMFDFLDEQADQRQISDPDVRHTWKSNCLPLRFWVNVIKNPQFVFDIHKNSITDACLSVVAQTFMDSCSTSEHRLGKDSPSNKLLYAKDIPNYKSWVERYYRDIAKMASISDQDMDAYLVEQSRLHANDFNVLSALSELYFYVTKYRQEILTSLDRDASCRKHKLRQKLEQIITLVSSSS
# Positions count from the first letter of the chain named. No constants are given. Whether binding was seen depends on the method and setting. Binding seen in cells or lysates may run through a third protein. Some entries that bind do so weakly or less than the wild type. For part of these data: Sequences can lack the tags named with a protein.
# Legend:
# [1] = molecular target: T1, Full CS neuropilin-2 (C878S/C885S/C887S/C897S/C922S/C923S) as used in the PlexA3 co-immunoprecipitation (mouse) (UniProt O35375); test: co-IP; HEK293T cells co-transfected with myc-tagged PlexA3 and WT Nrp2, Full CS Nrp2 or backbone vector; lysis in TNE buffer (NP-40, Tris, EDTA, NaCl), antibody overnight at 4°C, protein A/G agarose, washes with 500 mM and 150 mM NaCl; immunoblot against myc
# T1 sequence: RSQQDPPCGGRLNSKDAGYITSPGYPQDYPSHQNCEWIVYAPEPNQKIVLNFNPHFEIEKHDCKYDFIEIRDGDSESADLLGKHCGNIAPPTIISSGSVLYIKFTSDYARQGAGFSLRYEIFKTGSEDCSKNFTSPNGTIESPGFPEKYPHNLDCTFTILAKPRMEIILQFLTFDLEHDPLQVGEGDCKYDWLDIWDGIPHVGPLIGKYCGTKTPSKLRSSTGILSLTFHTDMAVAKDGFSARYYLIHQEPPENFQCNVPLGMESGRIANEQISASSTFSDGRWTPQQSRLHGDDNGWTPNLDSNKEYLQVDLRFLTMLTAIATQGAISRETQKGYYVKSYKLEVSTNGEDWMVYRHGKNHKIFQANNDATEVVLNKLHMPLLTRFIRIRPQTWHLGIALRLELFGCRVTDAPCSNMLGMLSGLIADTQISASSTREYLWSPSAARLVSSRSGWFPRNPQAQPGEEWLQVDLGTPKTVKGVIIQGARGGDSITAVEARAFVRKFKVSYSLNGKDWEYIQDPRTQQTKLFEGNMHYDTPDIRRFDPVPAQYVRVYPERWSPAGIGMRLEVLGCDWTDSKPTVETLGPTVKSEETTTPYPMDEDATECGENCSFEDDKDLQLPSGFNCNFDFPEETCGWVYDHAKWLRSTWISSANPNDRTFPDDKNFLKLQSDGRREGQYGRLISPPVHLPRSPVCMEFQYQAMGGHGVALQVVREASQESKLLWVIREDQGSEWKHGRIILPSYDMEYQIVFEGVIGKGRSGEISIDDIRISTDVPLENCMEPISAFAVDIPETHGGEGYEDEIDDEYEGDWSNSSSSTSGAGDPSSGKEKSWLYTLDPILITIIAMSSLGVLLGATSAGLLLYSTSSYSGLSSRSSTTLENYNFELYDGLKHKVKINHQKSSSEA
# [2] = molecular target: T2, wild-type neuropilin-2 (Nrp2 WT) as used in the PlexA3 co-immunoprecipitation (mouse) (UniProt O35375); test: as above
# T2 sequence: T1 sequence with S858C, S865C, S867C, S877C, S902C, S903C
# [3] = molecular target: T3, flag-tagged wild-type neuropilin-2 (mouse) (UniProt O35375); test: co-IP; HEK293T cells co-transfected with flag-tagged WT Nrp2 and pHluorin-tagged WT, Full CS or TCS Nrp2 or backbone vector; flag-Nrp2 WT immunoprecipitated with a flag antibody, immunoblot with flag or GFP antibody; TNE lysis buffer, washes with 500 mM and 150 mM NaCl
# T3 sequence: T1 sequence with S858C, S865C, S867C, S877C, S902C, S903C
binding [1],binding [2],binding [3],Substance
binds,binds,,myc-tagged plexinA3 (PlexA3) (from UniProt P70208 20-1872) (receptor)
,,binds,pHluorin-tagged wild-type neuropilin-2 (from UniProt O35375-4 21-926) (receptor)
